{"source": "PubChem BioAssay AID686938 (Drosophila RNAi Screening Center, 2013)", "aim": "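Looking for CRAC channel components and the factors controlling them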 (primary screen)", "cell system": "Drosophila S2R+ cells", "reagent": "long dsRNA against Drosophila genes, about 0.25 µg dsRNA per well, roughly 10,000 cells", "duration": "5 days of knock-down before the calcium assay", "conditions": "thapsigargin (SERCA pump blocker) to empty calcium stores; entry signal taken 4 min after adding it", "read-out": "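Per-well fluo-4 fluorescence in two replicates, unnormalised, measured in resting cells and 4 min after store depletion by the SERCA blocker thapsigargin; ratio of the two present in few wells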", "direction": "calcium entry signal: higher = stronger calcium signal after store depletion; resting calcium signal: higher = higher resting calcium signal", "units": "calcium entry signal in fluorescence units; resting calcium signal in fluorescence units", "rule for the call": "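Called when the plate z-score of the entry-to-rest ratio, mean of duplicates, falls below −3; wells with low overall dye signal (Fmax z below −2) or more than five off-targets excluded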", "calls": "active = strongly reduced calcium entry; inactive = no strong reduction", "note": "In all, the deposit lists about 23,000 reagents; below is a random part of those with a known target gene and a result. In the full data, 75 (0.33%) are marked active. 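Raw plate signals without normalisation; calls rest on plate z-scores that were not deposited; ratio present for only 364 wells.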 Entries without a mark were called inactive. The record does not give: the dose of the treatment."}
{"target": "CG2145", "amplicon": "DRSC19835", "calcium entry signal, replicate 1": 2.16e7, "calcium entry signal, replicate 2": 2.72e7, "resting calcium signal, replicate 1": 9.78e6, "resting calcium signal, replicate 2": 1.26e7}
{"target": "CG5039", "amplicon": "DRSC15703", "calcium entry signal, replicate 1": 4.60e7, "calcium entry signal, replicate 2": 5.23e7, "resting calcium signal, replicate 1": 2.10e7, "resting calcium signal, replicate 2": 2.28e7}
{"target": "dpr17", "amplicon": "DRSC12885", "calcium entry signal, replicate 1": 2.84e7, "calcium entry signal, replicate 2": 3.80e7, "resting calcium signal, replicate 1": 1.71e7, "resting calcium signal, replicate 2": 1.84e7}
{"target": "dpr17", "amplicon": "DRSC14957", "calcium entry signal, replicate 1": 2.83e7, "calcium entry signal, replicate 2": 2.68e7, "resting calcium signal, replicate 1": 1.48e7, "resting calcium signal, replicate 2": 1.35e7}
{"target": "dpr17", "amplicon": "DRSC14958", "calcium entry signal, replicate 1": 2.62e7, "calcium entry signal, replicate 2": 2.57e7, "resting calcium signal, replicate 1": 1.21e7, "resting calcium signal, replicate 2": 1.37e7}
{"target": "CG7017", "amplicon": "DRSC10762", "calcium entry signal, replicate 1": 2.24e7, "calcium entry signal, replicate 2": 3.56e7, "resting calcium signal, replicate 1": 1.18e7, "resting calcium signal, replicate 2": 1.57e7}
{"target": "AstA", "amplicon": "DRSC14634", "calcium entry signal, replicate 1": 4.20e7, "calcium entry signal, replicate 2": 3.45e7, "resting calcium signal, replicate 1": 2.09e7, "resting calcium signal, replicate 2": 1.49e7}
{"target": "Nipsnap", "amplicon": "DRSC20169", "calcium entry signal, replicate 1": 4.12e7, "calcium entry signal, replicate 2": 4.24e7, "resting calcium signal, replicate 1": 1.97e7, "resting calcium signal, replicate 2": 1.96e7}
{"target": "CG13287", "amplicon": "DRSC09961", "calcium entry signal, replicate 1": 5.93e7, "calcium entry signal, replicate 2": 3.17e7, "resting calcium signal, replicate 1": 2.70e7, "resting calcium signal, replicate 2": 1.83e7}
{"target": "dos", "amplicon": "DRSC07992", "calcium entry signal, replicate 1": 3.29e7, "calcium entry signal, replicate 2": 5.40e7, "resting calcium signal, replicate 1": 2.29e7, "resting calcium signal, replicate 2": 3.34e7}
{"target": "dos", "amplicon": "DRSC08713", "calcium entry signal, replicate 1": 3.97e7, "calcium entry signal, replicate 2": 5.23e7, "resting calcium signal, replicate 1": 1.93e7, "resting calcium signal, replicate 2": 2.21e7}
{"target": "dos", "amplicon": "DRSC23285", "calcium entry signal, replicate 1": 3.36e7, "calcium entry signal, replicate 2": 3.84e7, "resting calcium signal, replicate 1": 1.74e7, "resting calcium signal, replicate 2": 1.83e7}

2 entries already listed, ordered by “calcium entry signal, replicate 2”, low to high.
{"target": "dpr17", "amplicon": "DRSC14958", "calcium entry signal, replicate 1": 2.62e7, "calcium entry signal, replicate 2": 2.57e7, "resting calcium signal, replicate 1": 1.21e7, "resting calcium signal, replicate 2": 1.37e7}
{"target": "dpr17", "amplicon": "DRSC14957", "calcium entry signal, replicate 1": 2.83e7, "calcium entry signal, replicate 2": 2.68e7, "resting calcium signal, replicate 1": 1.48e7, "resting calcium signal, replicate 2": 1.35e7}

Next entries follow:
{"target": "mTerf3", "amplicon": "DRSC11759", "calcium entry signal, replicate 1": 3.93e7, "calcium entry signal, replicate 2": 4.46e7, "resting calcium signal, replicate 1": 1.90e7, "resting calcium signal, replicate 2": 3.15e7}
{"target": "clt", "amplicon": "DRSC04621", "calcium entry signal, replicate 1": 4.11e7, "calcium entry signal, replicate 2": 3.95e7, "resting calcium signal, replicate 1": 2.19e7, "resting calcium signal, replicate 2": 1.77e7}
{"target": "nmdyn-D6", "amplicon": "DRSC20355", "calcium entry signal, replicate 1": 3.89e7, "calcium entry signal, replicate 2": 3.47e7, "resting calcium signal, replicate 1": 1.94e7, "resting calcium signal, replicate 2": 1.63e7}
{"target": "CG33630", "amplicon": "DRSC14546", "calcium entry signal, replicate 1": 2.91e7, "calcium entry signal, replicate 2": 2.24e7, "resting calcium signal, replicate 1": 1.61e7, "resting calcium signal, replicate 2": 1.31e7}
{"target": "CG43064", "amplicon": "DRSC09133", "calcium entry signal, replicate 1": 5.05e7, "calcium entry signal, replicate 2": 3.67e7, "resting calcium signal, replicate 1": 2.66e7, "resting calcium signal, replicate 2": 1.70e7}
{"target": "Ent2", "amplicon": "DRSC02124", "calcium entry signal, replicate 1": 4.45e7, "resting calcium signal, replicate 1": 2.40e7}
{"target": "CG7218", "amplicon": "DRSC16216", "calcium entry signal, replicate 1": 3.54e7, "calcium entry signal, replicate 2": 3.41e7, "resting calcium signal, replicate 1": 1.62e7, "resting calcium signal, replicate 2": 1.43e7}
{"target": "gammaSnap1", "amplicon": "DRSC04686", "calcium entry signal, replicate 1": 3.51e7, "resting calcium signal, replicate 1": 1.81e7}
{"target": "Sp212", "amplicon": "DRSC22930", "calcium entry signal, replicate 1": 2.88e7, "calcium entry signal, replicate 2": 2.72e7, "resting calcium signal, replicate 1": 1.64e7, "resting calcium signal, replicate 2": 1.21e7}
